Experimental data published in the supplement of paper PMC12067093, “Discovery and optimisation of a covalent ligand for TRIM25 and its application to targeted protein ubiquitination” (Chemical Science, 2025).
This is one part of the list.

Amino acid sequences for entries named in this document (tags omitted). A change or cut given only in a name is not applied to a line headed by its entry.
UniProt P05771, whole entry, looked up: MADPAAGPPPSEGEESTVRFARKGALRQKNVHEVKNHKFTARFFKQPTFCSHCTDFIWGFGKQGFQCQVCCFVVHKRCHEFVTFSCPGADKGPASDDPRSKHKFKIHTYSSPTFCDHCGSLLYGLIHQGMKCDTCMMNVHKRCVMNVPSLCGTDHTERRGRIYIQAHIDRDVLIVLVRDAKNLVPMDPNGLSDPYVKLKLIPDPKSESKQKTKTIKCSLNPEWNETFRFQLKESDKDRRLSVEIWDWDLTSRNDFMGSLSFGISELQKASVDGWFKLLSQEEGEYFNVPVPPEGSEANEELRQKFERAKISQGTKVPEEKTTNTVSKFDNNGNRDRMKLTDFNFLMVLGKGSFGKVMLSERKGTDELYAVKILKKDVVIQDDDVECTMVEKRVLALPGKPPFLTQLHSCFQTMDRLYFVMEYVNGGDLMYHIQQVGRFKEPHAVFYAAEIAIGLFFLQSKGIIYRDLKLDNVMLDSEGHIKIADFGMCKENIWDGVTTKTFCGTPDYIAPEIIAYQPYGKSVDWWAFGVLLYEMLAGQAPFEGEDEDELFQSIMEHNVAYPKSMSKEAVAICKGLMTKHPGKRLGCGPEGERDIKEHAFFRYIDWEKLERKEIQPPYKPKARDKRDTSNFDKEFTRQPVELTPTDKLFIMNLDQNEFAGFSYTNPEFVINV
UniProt O94806: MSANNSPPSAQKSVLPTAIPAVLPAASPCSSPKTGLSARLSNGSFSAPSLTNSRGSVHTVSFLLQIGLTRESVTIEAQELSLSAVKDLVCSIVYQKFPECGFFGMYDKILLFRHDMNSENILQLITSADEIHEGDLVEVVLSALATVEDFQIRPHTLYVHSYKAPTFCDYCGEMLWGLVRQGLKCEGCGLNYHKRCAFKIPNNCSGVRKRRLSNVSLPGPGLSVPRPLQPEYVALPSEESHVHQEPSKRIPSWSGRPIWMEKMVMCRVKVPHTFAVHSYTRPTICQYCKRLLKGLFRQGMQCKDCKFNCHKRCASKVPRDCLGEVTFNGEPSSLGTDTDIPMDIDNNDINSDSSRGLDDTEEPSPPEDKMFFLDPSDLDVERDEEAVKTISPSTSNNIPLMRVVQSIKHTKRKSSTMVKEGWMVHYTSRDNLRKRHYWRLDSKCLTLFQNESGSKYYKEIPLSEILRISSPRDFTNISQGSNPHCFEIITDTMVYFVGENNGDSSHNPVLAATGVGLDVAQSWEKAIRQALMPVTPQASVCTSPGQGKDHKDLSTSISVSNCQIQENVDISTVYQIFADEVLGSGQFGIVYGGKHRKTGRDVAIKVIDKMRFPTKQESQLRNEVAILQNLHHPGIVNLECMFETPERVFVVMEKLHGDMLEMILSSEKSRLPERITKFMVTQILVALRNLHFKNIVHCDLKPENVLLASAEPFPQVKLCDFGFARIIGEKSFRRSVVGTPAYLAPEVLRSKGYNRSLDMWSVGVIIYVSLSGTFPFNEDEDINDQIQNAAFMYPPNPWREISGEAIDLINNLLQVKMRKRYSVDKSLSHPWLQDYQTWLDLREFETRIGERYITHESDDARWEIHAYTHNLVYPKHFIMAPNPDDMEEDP
UniProt O43900: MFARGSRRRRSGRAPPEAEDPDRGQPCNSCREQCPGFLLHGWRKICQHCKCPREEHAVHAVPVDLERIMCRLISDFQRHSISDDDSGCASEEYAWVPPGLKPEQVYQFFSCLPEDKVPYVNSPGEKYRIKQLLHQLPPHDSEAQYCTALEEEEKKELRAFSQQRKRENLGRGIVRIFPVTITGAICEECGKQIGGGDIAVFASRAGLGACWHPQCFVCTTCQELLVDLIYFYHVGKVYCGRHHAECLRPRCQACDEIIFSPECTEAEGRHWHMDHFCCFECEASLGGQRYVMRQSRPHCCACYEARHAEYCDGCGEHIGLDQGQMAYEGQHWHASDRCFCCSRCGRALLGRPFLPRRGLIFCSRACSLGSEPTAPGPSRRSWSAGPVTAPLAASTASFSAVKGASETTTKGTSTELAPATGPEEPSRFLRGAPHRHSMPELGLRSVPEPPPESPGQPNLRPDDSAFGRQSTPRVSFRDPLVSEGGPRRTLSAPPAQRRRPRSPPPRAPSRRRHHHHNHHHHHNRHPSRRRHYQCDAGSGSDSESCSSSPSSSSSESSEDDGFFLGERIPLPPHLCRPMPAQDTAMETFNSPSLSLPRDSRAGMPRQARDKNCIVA
UniProt P78527, whole entry, looked up: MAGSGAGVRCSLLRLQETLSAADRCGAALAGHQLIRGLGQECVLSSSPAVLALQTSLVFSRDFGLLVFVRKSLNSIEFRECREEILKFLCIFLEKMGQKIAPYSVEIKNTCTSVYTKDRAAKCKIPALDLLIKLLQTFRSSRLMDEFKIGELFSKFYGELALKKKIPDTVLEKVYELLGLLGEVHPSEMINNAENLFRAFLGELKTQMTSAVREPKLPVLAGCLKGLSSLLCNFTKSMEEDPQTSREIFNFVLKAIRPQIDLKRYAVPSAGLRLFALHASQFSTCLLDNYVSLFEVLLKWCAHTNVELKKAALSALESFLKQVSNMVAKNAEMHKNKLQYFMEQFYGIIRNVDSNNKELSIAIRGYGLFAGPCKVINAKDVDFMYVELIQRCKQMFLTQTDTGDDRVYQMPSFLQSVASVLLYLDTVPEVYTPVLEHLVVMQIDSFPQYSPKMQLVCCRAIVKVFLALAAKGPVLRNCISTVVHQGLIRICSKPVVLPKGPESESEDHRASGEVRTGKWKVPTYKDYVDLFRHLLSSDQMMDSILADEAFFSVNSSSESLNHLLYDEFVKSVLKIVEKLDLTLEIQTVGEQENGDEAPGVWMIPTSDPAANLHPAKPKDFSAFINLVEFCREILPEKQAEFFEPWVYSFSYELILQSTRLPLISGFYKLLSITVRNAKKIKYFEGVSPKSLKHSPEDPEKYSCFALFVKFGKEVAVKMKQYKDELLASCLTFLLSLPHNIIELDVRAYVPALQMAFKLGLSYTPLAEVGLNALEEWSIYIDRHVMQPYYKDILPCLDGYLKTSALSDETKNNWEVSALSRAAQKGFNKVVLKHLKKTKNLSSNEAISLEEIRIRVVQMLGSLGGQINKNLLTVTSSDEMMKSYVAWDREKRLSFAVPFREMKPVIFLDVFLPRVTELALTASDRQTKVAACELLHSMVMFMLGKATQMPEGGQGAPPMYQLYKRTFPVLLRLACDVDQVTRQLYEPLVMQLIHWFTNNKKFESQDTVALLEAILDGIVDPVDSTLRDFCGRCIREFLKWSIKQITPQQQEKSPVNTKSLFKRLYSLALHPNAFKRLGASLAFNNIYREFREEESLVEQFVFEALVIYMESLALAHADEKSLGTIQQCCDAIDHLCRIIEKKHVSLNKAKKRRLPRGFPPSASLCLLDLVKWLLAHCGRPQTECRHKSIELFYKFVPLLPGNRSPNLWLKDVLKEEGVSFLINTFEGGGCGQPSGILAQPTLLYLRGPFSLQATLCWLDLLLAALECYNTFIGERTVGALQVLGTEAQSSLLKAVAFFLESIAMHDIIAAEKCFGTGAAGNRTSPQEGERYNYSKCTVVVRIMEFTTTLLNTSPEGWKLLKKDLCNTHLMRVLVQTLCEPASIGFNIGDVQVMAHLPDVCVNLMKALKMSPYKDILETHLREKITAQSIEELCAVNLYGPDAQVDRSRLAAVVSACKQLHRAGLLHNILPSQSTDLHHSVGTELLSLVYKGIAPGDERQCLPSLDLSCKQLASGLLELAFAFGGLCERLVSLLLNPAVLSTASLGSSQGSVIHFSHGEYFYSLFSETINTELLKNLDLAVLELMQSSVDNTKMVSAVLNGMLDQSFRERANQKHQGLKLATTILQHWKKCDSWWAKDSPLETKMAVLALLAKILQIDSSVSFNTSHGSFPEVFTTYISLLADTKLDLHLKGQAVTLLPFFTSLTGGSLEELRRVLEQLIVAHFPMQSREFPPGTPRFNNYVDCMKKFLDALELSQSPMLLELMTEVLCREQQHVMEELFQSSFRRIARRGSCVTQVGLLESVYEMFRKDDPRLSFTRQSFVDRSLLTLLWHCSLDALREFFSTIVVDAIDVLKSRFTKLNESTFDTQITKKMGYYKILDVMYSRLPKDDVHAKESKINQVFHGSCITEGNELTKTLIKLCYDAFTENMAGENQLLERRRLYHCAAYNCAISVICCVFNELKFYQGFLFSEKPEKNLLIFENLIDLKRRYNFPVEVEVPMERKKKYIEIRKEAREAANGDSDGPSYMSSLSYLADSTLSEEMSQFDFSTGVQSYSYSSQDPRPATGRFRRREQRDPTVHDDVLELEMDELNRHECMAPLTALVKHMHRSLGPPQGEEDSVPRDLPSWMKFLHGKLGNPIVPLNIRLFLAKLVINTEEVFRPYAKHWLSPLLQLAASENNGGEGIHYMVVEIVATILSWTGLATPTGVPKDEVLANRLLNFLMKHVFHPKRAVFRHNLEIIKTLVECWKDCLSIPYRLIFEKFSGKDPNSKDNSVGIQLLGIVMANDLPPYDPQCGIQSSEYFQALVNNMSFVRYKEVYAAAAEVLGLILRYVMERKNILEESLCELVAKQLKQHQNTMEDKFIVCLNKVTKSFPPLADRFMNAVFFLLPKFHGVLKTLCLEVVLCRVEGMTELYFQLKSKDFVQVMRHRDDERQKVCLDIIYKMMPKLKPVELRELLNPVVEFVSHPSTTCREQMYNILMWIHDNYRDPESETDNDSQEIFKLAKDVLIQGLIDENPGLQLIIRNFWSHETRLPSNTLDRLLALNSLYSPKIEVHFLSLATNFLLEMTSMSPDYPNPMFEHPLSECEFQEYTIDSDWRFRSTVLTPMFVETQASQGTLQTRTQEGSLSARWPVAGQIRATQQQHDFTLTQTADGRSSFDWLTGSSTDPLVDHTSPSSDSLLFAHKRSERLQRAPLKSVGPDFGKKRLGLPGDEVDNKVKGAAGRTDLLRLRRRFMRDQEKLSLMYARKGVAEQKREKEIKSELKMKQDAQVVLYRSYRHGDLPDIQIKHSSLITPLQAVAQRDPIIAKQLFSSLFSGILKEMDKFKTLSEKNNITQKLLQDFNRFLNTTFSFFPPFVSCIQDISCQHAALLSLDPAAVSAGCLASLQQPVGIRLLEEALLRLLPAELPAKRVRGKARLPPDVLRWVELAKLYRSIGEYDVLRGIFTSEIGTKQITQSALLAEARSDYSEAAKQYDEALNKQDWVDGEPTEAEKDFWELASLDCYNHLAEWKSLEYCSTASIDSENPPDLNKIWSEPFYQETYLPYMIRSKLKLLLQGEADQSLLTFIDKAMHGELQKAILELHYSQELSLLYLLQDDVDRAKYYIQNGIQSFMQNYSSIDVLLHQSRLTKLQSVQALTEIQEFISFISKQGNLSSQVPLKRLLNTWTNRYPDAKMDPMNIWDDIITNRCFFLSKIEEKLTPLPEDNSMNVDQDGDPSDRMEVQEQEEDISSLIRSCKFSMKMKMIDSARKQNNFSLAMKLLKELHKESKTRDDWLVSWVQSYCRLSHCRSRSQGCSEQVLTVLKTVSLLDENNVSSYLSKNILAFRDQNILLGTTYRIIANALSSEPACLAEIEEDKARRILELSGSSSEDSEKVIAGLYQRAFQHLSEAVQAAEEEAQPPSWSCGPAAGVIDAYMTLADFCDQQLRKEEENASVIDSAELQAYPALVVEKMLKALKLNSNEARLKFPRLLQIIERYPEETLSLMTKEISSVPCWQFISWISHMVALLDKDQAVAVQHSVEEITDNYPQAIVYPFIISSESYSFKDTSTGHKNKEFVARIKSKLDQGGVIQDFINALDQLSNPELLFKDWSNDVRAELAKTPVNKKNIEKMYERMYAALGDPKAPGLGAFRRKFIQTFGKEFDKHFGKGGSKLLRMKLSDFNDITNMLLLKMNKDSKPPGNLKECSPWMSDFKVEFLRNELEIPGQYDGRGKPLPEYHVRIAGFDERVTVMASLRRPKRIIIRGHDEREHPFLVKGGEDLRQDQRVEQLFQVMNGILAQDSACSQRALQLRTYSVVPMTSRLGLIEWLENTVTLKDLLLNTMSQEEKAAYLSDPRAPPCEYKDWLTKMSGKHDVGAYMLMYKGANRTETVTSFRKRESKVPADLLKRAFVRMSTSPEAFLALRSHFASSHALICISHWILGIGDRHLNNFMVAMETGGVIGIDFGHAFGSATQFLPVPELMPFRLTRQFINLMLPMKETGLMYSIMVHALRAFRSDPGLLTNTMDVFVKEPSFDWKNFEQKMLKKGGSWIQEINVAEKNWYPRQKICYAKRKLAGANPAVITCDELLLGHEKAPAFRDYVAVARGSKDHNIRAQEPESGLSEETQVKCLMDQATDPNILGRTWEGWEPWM

Compound: CC1Cc2ccccc2N1C(=O)C1CCCN(C1)C(=O)CCl (mixture of isomers) [TRIM25 ligand 11 (diastereomer mixture)]
Test: probe-labelled cysteine peptide fold change vs DMSO (competition) (log2 fold change); higher = less target engagement (more negative = stronger competition)
Conditions: THP-1, incubation time: 4 h
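Further: competitive chemoproteomic profiling in live THP-1 cells with an iodoacetamide desthiobiotin (IA-DTB) probe, comparing probe-labelled peptide intensities in compound-treated cells against DMSO-treated controls.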

Target | probe-labelled cysteine peptide fold change (10 µM) | probe-labelled cysteine peptide fold change (50 µM)
PRKCB_P05771_53_QPTFCSHCTDFIWGFGK (UniProt P05771) | 0.106 | 0.105
PRPF3_O43395_630_CVLVWEGTAK (UniProt O43395) | 0.0171 | -0.0612
PRKD3_O94806_204_IPNNCSGVR (UniProt O94806) | 0.0623 | 0.248
PRICKLE3_O43900_246_HHAECLRPR (UniProt O43900) | 0.0088 | -0.0424
PRKCB_P05771_132_CDTCMMNVHK (UniProt P05771) | -0.0421 | -0.0709
PRPF39_Q86UA1_450_TFEECVLGLAMVR (UniProt Q86UA1) | -0.0525 | -0.0403
PRKDC_P78527_3347_IIANALSSEPACLAEIEEDK (UniProt P78527) | 0.033 | 0.0495
PRKDC_P78527_3281_TRDDWLVSWVQSYCR (UniProt P78527) | -0.0286 | -0.0775

Reformatted: results already given
Target	probe-labelled cysteine peptide fold change (10 µM)	probe-labelled cysteine peptide fold change (50 µM)
PRKD3_O94806_204_IPNNCSGVR (UniProt O94806)	0.0623	0.248
PRICKLE3_O43900_246_HHAECLRPR (UniProt O43900)	0.0088	-0.0424
